From patent US12729225B2, “Non-canonical SWI/SNF complex and uses thereof” (Dana-Farber Cancer Institute, Inc., priority 2018, dated 2026) come the findings set out here.

The test system of this data set is mSWI/SNF complexes. Briefly: mSWI/SNF complex purification with HA-tagged baits and mass spectrometry (peptide counts). More on the design: species or system human.
Setting [1] is: 293_HA-BRD7 bait purification, mass spectrometry, total peptide count per identified protein.
Where [2] appears, read: 293_HA-BRD7 bait purification, mass spectrometry, unique peptide count per identified protein.

B1: XPO5 (protein, UniProt Q9HAV4 2-1204, looked up)
Exportin-5: AMDQVNALCEQLVKAVTVMMDPNSTQRYRLEALKFCEEFKEKCPICVPCGLRLAEKTQVAIVRHFGLQILEHVVKFRWNGMSRLEKVYLKNSVMELIANGTLNILEEENHIKDALSRIVVEMIKREWPQHWPDMLIELDTLSKQGETQTELVMFILLRLAEDVVTFQTLPPQRRRDIQQTLTQNMERIFSFLLNTLQENVNKYQQVKTDTSQESKAQANCRVGVAALNTLAGYIDWVSMSHITAENCKLLEILCLLLNEQELQLGAAECLLIAVSRKGKLEDRKPLMVLFGDVAMHYILSAAQTADGGGLVEKHYVFLKRLCQVLCALGNQLCALLGADSDVETPSNFGKYLESFLAFTTHPSQFLRSSTQMTWGALFRHEILSRDPLLLAIIPKYLRASMTNLVKMGFPSKTDSPSCEYSRFDFDSDEDFNAFFNSSRAQQGEVMRLACRLDPKTSFQMAGEWLKYQLSTFLDAGSVNSCSAVGTGEGSLCSVFSPSFVQWEAMTLFLESVITQMFRTLNREEIPVNDGIELLQMVLNFDTKDPLILSCVLTNVSALFPFVTYRPEFLPQVFSKLFSSVTFETVEESKAPRTRAVRNVRRHACSSIIKMCRDYPQLVLPNFDMLYNHVKQLLSNELLLTQMEKCALMEALVLISNQFKNYERQKVFLEELMAPVASIWLSQDMHRVLSDVDAFIAYVGTDQKSCDPGLEDPCGLNRARMSFCVYSILGVVKRTCWPTDLEEAKAGGFVVGYTSSGNPIFRNPCTEQILKLLDNLLALIRTHNTLYAPEMLAKMAEPFTKALDMLDAEKSAILGLPQPLLELNDSPVFKTVLERMQRFFSTLYENCFHILGKAGPSMQQDFYTVEDLATQLLSSAFVNLNNIPDYRLRPMLRVFVKPLVLFCPPEHYEALVSPILGPLFTYLHMRLSQKWQVINQRSLLCGEDEAADENPESQEMLEEQLVRMLTREVMDLITVCCVSKKGADHSSAPPADGDDEEMMATEVTPSAMAELTDLGKCLMKHEDVCTALLITAFNSLAWKDTLSCQRTTSQLCWPLLKQVLSGTLLADAVTWLFTSVLKGLQMHGQHDGCMASLVHLAFQIYEALRPRYLEIRAVMEQIPEIQKDSLDQFDCKLLNPSLQKVADKRRKDQFKRLIAGCIGKPLGEQFRKEVHIKNLPSLFKKTKPMLETEVLDNDGGGLATIFEP
As to B1, the Total under setting [1] is recorded as 1. The Unique under setting [2] came out at 1.

B2: TSR1 (protein, UniProt Q2NL82 1-804, looked up)
Pre-rRNA-processing protein …: MAAHRPGPLKQQNKAHKGGRHRGRGSAQRDGKGRLALKTLSKKVRKELSRVDQRHRASQLRKQKKEAVLAEKRQLGGKDGPPHQVLVVPLHSRISLPEAMQLLQDRDTGTVHLNELGNTQNFMLLCPRLKHRWFFTSARPGDLHVVLDMAKVADTILFLLDPLEGWDSTGDYCLSCLFAQGLPTYTLAVQGISGLPLKKQIDTRKKLSKAVEKRFPHDKLLLLDTQQEAGMLLRQLANQKQQHLAFRDRRAYLFAHAVDFVPSEENNLVGTLKISGYVRGQTLNVNRLLHIVGYGDFQMKQIDAPGDPFPLNPRGIKPQKDPDMAMEICATDAVDDMEEGLKVLMKADPGRQESLQAEVIPDPMEGEQTWPTEEELSEAKDFLKESSKVVKKVPKGTSSYQAEWILDGGSQSGGEGDEYEYDDMEHEDFMEEESQDESSEEEEEYETMTIGESVHDDLYDKKVDEEAEAKMLEKYKQERLEEMFPDEVDTPRDVAARIRFQKYRGLKSFRTSPWDPKENLPQDYARIFQFQNFTNTRKSIFKEVEEKEVEGAEVGWYVTLHVSEVPVSVVECFRQGTPLIAFSLLPHEQKMSVLNMVVRRDPGNTEPVKAKEELIFHCGFRRFRASPLFSQHTAADKHKLQRFLTADMALVATVYAPITFPPASVLLFKQKSNGMHSLIATGHLMSVDPDRMVIKRVVLSGHPFKIFTKMAVVRYMFFNREDVLWFKPVELRTKWGRRGHIKEPLGTHGHMKCSFDGKLKSQDTVLMNLYKRVFPKWTYDPYVPEPVPWLKSEISSTVPQGGME
On to B2, for which the Total under setting [1] is on record as 1. Further, under setting [2], the Unique is reported as 1.

B3: PPT1 (protein, UniProt P50897 28-306, looked up)
Palmitoyl-protein …: DPPAPLPLVIWHGMGDSCCNPLSMGAIKKMVEKKIPGIYVLSLEIGKTLMEDVENSFFLNVNSQVTTVCQALAKDPKLQQGYNAMGFSQGGQFLRAVAQRCPSPPMINLISVGGQHQGVFGLPRCPGESSHICDFIRKTLNAGAYSKVVQERLVQAEYWHDPIKEDVYRNHSIFLADINQERGINESYKKNLMALKKFVMVKFLNDSIVDPVDSEWFGFYRSGQAKETIPLQETSLYTQDRLGLKEMDNAGQLVFLATEGDHLQLSEEWFYAHIIPFLG
Turning to B3, the Total under setting [1] is 1. The Unique under setting [2] was 1.

B4: NCBP1 (protein, UniProt Q09161 1-790, looked up)
Nuclear cap-binding protein …: MSRRRHSDENDGGQPHKRRKTSDANETEDHLESLICKVGEKSACSLESNLEGLAGVLEADLPNYKSKILRLLCTVARLLPEKLTIYTTLVGLLNARNYNFGGEFVEAMIRQLKESLKANNYNEAVYLVRFLSDLVNCHVIAAPSMVAMFENFVSVTQEEDVPQVRRDWYVYAFLSSLPWVGKELYEKKDAEMDRIFANTESYLKRRQKTHVPMLQVWTADKPHPQEEYLDCLWAQIQKLKKDRWQERHILRPYLAFDSILCEALQHNLPPFTPPPHTEDSVYPMPRVIFRMFDYTDDPEGPVMPGSHSVERFVIEENLHCIIKSHWKERKTCAAQLVSYPGKNKIPLNYHIVEVIFAELFQLPAPPHIDVMYTTLLIELCKLQPGSLPQVLAQATEMLYMRLDTMNTTCVDRFINWFSHHLSNFQFRWSWEDWSDCLSQDPESPKPKFVREVLEKCMRLSYHQRILDIVPPTFSALCPANPTCIYKYGDESSNSLPGHSVALCLAVAFKSKATNDEIFSILKDVPNPNQDDDDDEGFSFNPLKIEVFVQTLLHLAAKSFSHSFSALAKFHEVFKTLAESDEGKLHVLRVMFEVWRNHPQMIAVLVDKMIRTQIVDCAAVANWIFSSELSRDFTRLFVWEILHSTIRKMNKHVLKIQKELEEAKEKLARQHKRRSDDDDRSSDRKDGVLEEQIERLQEKVESAQSEQKNLFLVIFQRFIMILTEHLVRCETDGTSVLTPWYKNCIERLQQIFLQHHQIIQQYMVTLENLLFTAELDPHILAVFQQFCALQA
In turn, B4 came in with a Total under setting [1] of 1. Under setting [2], this molecule had a Unique of 1.

B5: HNRNPDL (protein, UniProt O14979 1-420, looked up)
Heterogeneous nuclear …: MEVPPRLSHVPPPLFPSAPATLASRSLSHWRPRPPRQLAPLLPSLAPSSARQGARRAQRHVTAQQPSRLAGGAAIKGGRRRRPDLFRRHFKSSSIQRSAAAAAATRTARQHPPADSSVTMEDMNEYSNIEEFAEGSKINASKNQQDDGKMFIGGLSWDTSKKDLTEYLSRFGEVVDCTIKTDPVTGRSRGFGFVLFKDAASVDKVLELKEHKLDGKLIDPKRAKALKGKEPPKKVFVGGLSPDTSEEQIKEYFGAFGEIENIELPMDTKTNERRGFCFITYTDEEPVKKLLESRYHQIGSGKCEIKVAQPKEVYRQQQQQQKGGRGAAAGGRGGTRGRGRGQGQNWNQGFNNYYDQGYGNYNSAYGGDQNYSGYGGYDYTGYNYGNYGYGQGYADYSGQQSTYGKASRGGGNHQNNYQPY
Take B5: the Total under setting [1] stood at 1. The molecule further returned a Unique under setting [2] of 1.

B6: RPN2 (protein, UniProt P04844 23-631, looked up)
Dolichyl-diphosphooligosacchar …: LTPTHYLTKHDVERLKASLDRPFTNLESAFYSIVGLSSLGAQVPDAKKACTYIRSNLDPSNVDSLFYAAQASQALSGCEISISNETKDLLLAAVSEDSSVTQIYHAVAALSGFGLPLASQEALSALTARLSKEETVLATVQALQTASHLSQQADLRSIVEEIEDLVARLDELGGVYLQFEEGLETTALFVAATYKLMDHVGTEPSIKEDQVIQLMNAIFSKKNFESLSEAFSVASAAAVLSHNRYHVPVVVVPEGSASDTHEQAILRLQVTNVLSQPLTQATVKLEHAKSVASRATVLQKTSFTPVGDVFELNFMNVKFSSGYYDFLVEVEGDNRYIANTVELRVKISTEVGITNVDLSTVDKDQSIAPKTTRVTYPAKAKGTFIADSHQNFALFFQLVDVNTGAELTPHQTFVRLHNQKTGQEVVFVAEPDNKNVYKFELDTSERKIEFDSASGTYTLYLIIGDATLKNPILWNVADVVIKFPEEEAPSTVLSQNLFTPKQEIQHLFREPEKRPPTVVSNTFTALILSPLLLLFALWIRIGANVSNFTFAPSTIIFHLGHAAMLGLMYVYWTQLNMFQTLKYLAILGSVTFLAGNRMLAQQAVKRTAH
B6 yielded a Total (293_HA-BRD7: HA-BRD7 bait purification, total peptide count per co-purified protein) of 13. This molecule also gave a Unique (293_HA-BRD7: HA-BRD7 bait purification, unique peptide count per co-purified protein) of 12.

B7: SAP18 (protein, UniProt O00422 2-153, looked up)
Histone deacetylase complex …: AVESRVTQEEIKKEPEKPIDREKTCPLLLRVFTTNNGRHHRMDEFSRGNVPSSELQIYTWMDATLKELTSLVKEVYPEARKKGTHFNFAIVFTDVKRPGYRVKEIGSTMSGRKGTDDSMTLQSQKFQIGDYLDIAITPPNRAPPPSGRMRPY
Under setting [1], B7 gave a Total of 1. The same molecule yielded a Unique under setting [2] of 1.

B8: ##LIPI (protein, UniProt Q6XZB0 16-460, looked up)
Lipase member I: DNKRPCLEFSQLSVKDSFRDLFIPRIETILMMYTRNNLNCAEPLFEQNNSLNVNFNTQKKTVWLIHGYRPVGSIPLWLQNFVRILLNEEDMNVIVVDWSRGATTFIYNRAVKNTRKVAVSLSVHIKNLLKHGASLDNFHFIGVSLGAHISGFVGKIFHGQLGRITGLDPAGPRFSRKPPYSRLDYTDAKFVDVIHSDSNGLGIQEPLGHIDFYPNGGNKQPGCPKSIFSGIQFIKCNHQRAVHLFMASLETNCNFISFPCRSYKDYKTSLCVDCDCFKEKSCPRLGYQAKLFKGVLKERMEGRPLRTTVFLDTSGTYPFCTYYFVLSIIVPDKTMMDGSFSFKLLNQLGMIEEPRLYEKNKPFYKLQEVKILAQFYNDFVNISSIGLTYFQSSNLQCSTCTYKIQSLMLKSLTYPERPPLCRYNIVLKDREEVFLNPNTCTPKNT
In turn, B8 showed a Total under setting [1] of 1. Under setting [2], this molecule returned a Unique of 1.

B9: PDE7B (protein, UniProt Q9NP56 1-450, looked up)
3',5'-cyclic-AMP …: MSCLMVERCGEILFENPDQNAKCVCMLGDIRLRGQTGVRAERRGSYPFIDFRLLNSTTYSGEIGTKKKVKRLLSFQRYFHASRLLRGIIPQAPLHLLDEDYLGQARHMLSKVGMWDFDIFLFDRLTNGNSLVTLLCHLFNTHGLIHHFKLDMVTLHRFLVMVQEDYHSQNPYHNAVHAADVTQAMHCYLKEPKLASFLTPLDIMLGLLAAAAHDVDHPGVNQPFLIKTNHHLANLYQNMSVLENHHWRSTIGMLRESRLLAHLPKEMTQDIEQQLGSLILATDINRQNEFLTRLKAHLHNKDLRLEDAQDRHFMLQIALKCADICNPCRIWEMSKQWSERVCEEFYRQGELEQKFELEISPLCNQQKDSIPSIQIGFMSYIVEPLFREWAHFTGNSTLSENMLGHLAHNKAQWKSLLPRQHRSRGSSGSGPDHDHAGQGTESEEQEGDSP
As for B9, under setting [1], the Total turned out to be 1. The same molecule returned a Unique under setting [2] of 1.
